Source: patent US11918621B2, “Methods and treatments using toll-like receptor agonists to mitigate hematopoietic myeloid loss, increase gastrointestinal recovery and reduce tumor growth” (priority 2017, dated 2024)
At least one peptide structure holds a part that was inferred or is arguable (an end, a ring closure or a residue). Peptide text beside a SMILES is read from it. * marks the point of attachment. X1 = CCCCCCCCCCCCCCCC(=O)OCC(C*)OC(=O)CCCCCCCCCCCCCCC

How the values were obtained:
[1] = tested on: irradiated male C57BL/6 mice; assay: Radiomitigation activity of TLR2 ligands after TBI; type: in vivo; details: IP injection 24 hr post TBI, compared to control mice
Protocol: The radiomitigation activity of TLR2 ligands was delineated (FIGS. 1C and 1D), including FSL-1, by irradiating male C57BL/6 mice and treating (IP injections) with either FSL-1, Pam2CSK4 (Pam2Cys-SKKKK, TLR2/6 ligand), or Pam3CSK4 (Pam3Cys-SKKKK, TLR1/2 ligand) at 24 hours (hr) post TBI.

[2] = tested on: bone marrow; assay: Bone marrow recovery after gamma irradiation; type: in vivo, mice; details: for bone marrow cellularity: IP 0.25 mg/kg 24 hr after gamma irradiation
[3] = tested on: peripheral blood cells; assay: Peripheral blood cell counts after radiation (Animal Blood Counter); type: in vivo, mice; details: radiation followed by single IP administration
[4] = tested on: G-CSF; assay: Serum G-CSF post TBI (luminex multiplex and ELISA); type: in vivo; details: irradiated mice
[5] = tested on: Balb/c mice post radiation (7.5Gy TBI); assay: Survival and weight after 7.5Gy TBI in Balb/c mice, FSL-1 given subcutaneously; type: in vivo; details: single SC dose 24 hr post 7.5Gy TBI
[6] = tested on: hematopoietic stem and common myeloid progenitor cells, peripheral blood neutrophils; assay: Myeloid cell recovery after sub-lethal gamma irradiation (5Gy); type: in vivo, mice
[7] = tested on: GI epithelial injury (DSS); assay: Acute colitis model using dextran sodium sulfate (DSS); type: in vivo, mice
[8] = 2 to 4 weeks after SC administration, 30-100 μg
[9] = wild type, 2-4% DSS water 5 days, FSL-1 given on day 3

Compound: CCCCCCCCCCCCCCCC(=O)OCC(CSC[C@H](N)C(=O)NCC(=O)N[C@@H](CC(=O)O)C(=O)N1CCC[C@H]1C(=O)N[C@@H](CCCCN)C(=O)N[C@@H](Cc1c[nH]cn1)C(=O)N1CCC[C@H]1C(=O)N[C@@H](CCCCN)C(=O)N[C@@H](CO)C(=O)N[C@@H](Cc1ccccc1)C(=O)O)OC(=O)CCCCCCCCCCCCCCC (stereo partly shown) [FSL-1] (H-C(X1)GDPKHPKSF-OH)
- weight loss [1]: protection from weight loss
- bone marrow cellularity ([2]; day 9): recovery of cellularity by day 9
- bone marrow cellularity ([2]; day 31): fully reconstituted by day 31
- proliferative responses in bone marrow (Ki67+ staining) ([2]; as early as day 8): increased Ki67^+ staining
- cell type in recovery of hematopoietic cells (femur cell smears) ([2]; especially by day 31): Granulocytic cells predominated
- granulocytes in peripheral blood [3]: return to baseline, unirradiated levels by day 31
- lymphocytes (lym) [3]: partial recovery
- monocytes in peripheral blood [3]: return to baseline, unirradiated levels by day 31
- platelets (plt) [3]: partial recovery
- red blood cells (rbc) [3]: partial recovery
- white blood cells (wbc) [3]: partial recovery
- serum G-CSF ([4]; day 31 post TBI): levels were similar to that of non-irradiated mice
- serum G-CSF ([4]; early after TBI): increased in FSL-1-treated, irradiated mice as early as day 3 post TBI
- body weight [5]: re-gained pre-irradiation weight
- common myeloid progenitor (CD16/32 intermediate, lin−Sca+c-kit−) cells in bone marrow ([6]; 5Gy, 0.8 mg/kg SC): increases
- hematopoietic stem (Lineage−Sca+c-kit−) cells in bone marrow ([6]; 5Gy, 0.8 mg/kg SC): increases
- neutrophils in peripheral blood ([6]; irradiated subjects): elevated to levels found in unirradiated animals
- clinical scores ([7]; Tlr2-deficient animals): developed high clinical scores
- recovery from GI inflammatory insults of DSS ([7]; Tlr2-deficient animals): unable to recover
- clinical symptoms [7, 9]: significantly fewer clinical symptoms
- weight loss [7, 9]: minimal weight loss
- peripheral blood neutrophils [8]: increases in peripheral blood neutrophils
